Laboratory results published in PubChem BioAssay (NCATS).
Values joined by “and” are separate entries in the source; they are usually repeats but may differ in a detail not shown here. Equal values may be shown once. This list was built around the results that the source calls inconclusive (neither active nor inactive); the mix of calls is not that of the screen. Potencies of inconclusive entries are doubtful fits and often do not repeat. Active and inactive are the calls of the source. The call rests on the fitted dose curve; in most records, active means well fitted cell-killing curve with a large enough effect; inconclusive means small, poorly fitted or top-dose-only effect, or effect the other way, or another doubt; inactive means no such curve, though single readings can be large or run the other way.

Test: Identifying Small Molecule Inhibitors of Pancreatic Cancer Stem Cells (Panc1, Spheroid) (AID 1259359);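 further: compound exposure lasted 48 h before reading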
Settings: Panc1 spheroid cancer stem cell viability; viability, % of control: at 46.1 µM (top of the series) unless noted
Excerpt: Progenitor-like cancer cells, often referred to as cancer stem cells (CSC), are believed to be the drivers of therapeutic resistance and rapid recurrence. CSCs are postulated to reside in specific niches characterized by low oxygen tension, limited nutrient supply, and high redox load. Selectively targeting CSC, alone or in combination with cytotoxic agents, as a means to produce durable remissions is an appealing concept. Modeling these cells in in vitro setting is an important step in finding new therapies and/or targets. Multiple reports highlight that forcing cells in culture into 3-dimensionaly architectures (spheroids) re-establishes key progenitor-like transcriptional signatures. Pancreatic cancer is among the diseases with the most dismal outlook which is driven, largely, by recurance following front-line therapies. […] In hopes of deriving new insight into the targeting of these pancreatic CSCs we examined three established pancreatic cancer cell lines in cytotoxicity assays versus a collection of approved and investigational drugs. Importantly, we screened these lines as traditional monolayer (2D) and spheroid (3D) formats to gain an appreciation of agents with differential activity.
Multicellular tumor spheroids from Panc1, MiaPaCa-2, and the primary low-passage tissue culture line SB.06 were seeded in stem cell media (SCM) in nonadherent 6-well plates coated with hydrogel (Corning Life Sciences, Chelmsford, Mass) and pancreatic spheres generated for 14 days before screening. Cells were seeded into 1536-well solid-bottom white tissue culture treated Greiner Bio One Plates (789173-F) using a MultiDrop Combi (Thermofisher Scientific) dispenser and a small sterile cassette. One column was media alone to be used as a :"no cells" control. The plates were then covered with sterilized stainless steel gasketed lids from Kalypsys. After allowing cells to attach for 4 hours, 23 nL of test compound or control (negative control DMSO and positive control 9.2 uM Bortezomib-final) were added from a 1536-well polypropylene compound source plate to each well using a 1536 head pin tool from Kalypsys. Cells were then incubated for 48 hours at 37C, 95% relative humidity and 5% CO2. After 48 hours, plates were removed from the incubator and 3 uL of CellTiter-Glo (Promega) was added using an Aurora Flying Reagent Dispenser Bioraptor. Plates were incubated at room temperature for 10 minutes prior to reading the luminescence on the Viewlux (PerkinElmer). The relative luciferase units are used to calculate the percent activity using the activity of DMSO in the cells and no cells columns for normalization of no inhibition and full inhibition respectively.
Potency means the concentration at half of the fitted maximal effect.

Row | SMILES | viability, % of control | Potency
1 | NC(=O)c1c(OCc2c(F)cc(Br)cc2F)nsc1NC(=O)NCCCCN1CCCC1 | inconclusive: 65.1% | –
2 | COc1ccc(C2=N[C@H](c3ccc(Cl)cc3)[C@H](c3ccc(Cl)cc3)N2C(=O)N2CCNC(=O)C2)c(OC(C)C)c1 | inconclusive: 95.6% | –
3 | Cc1c(CN2CCN(C(=O)C(C)C)CC2)sc2c(N3CCOCC3)nc(-c3cnc(N)nc3)nc12 | – | inconclusive: 526 nM [cytotoxic, full curve]
4 | NC(=O)c1ncn([C@@H]2O[C@H](CO)[C@@H](O)[C@H]2O)c1N | inconclusive: 162% | –
5 | CC[C@@H]1C(=O)N(C)c2cnc(Nc3ccc(C(=O)NC4CCC(N5CCN(CC6CC6)CC5)CC4)cc3OC)nc2N1C(C)C (stereo not given in full) | – | active: 9.3 nM
6 | CCC[C@H](NC(=O)C(C#N)=Cc1cccc(Br)n1)c1ccccc1 | – | inconclusive: 4180 nM [cytotoxic, full curve, poor fit]
7 | O=C(C=Cc1cccc(S(=O)(=O)Nc2ccccc2)c1)NO | – | inconclusive: 5260 nM [cytotoxic, full curve, poor fit]
8 | CN(C)CC=CC(=O)Nc1cc2c(Nc3ccc(F)c(Cl)c3)ncnc2cc1O[C@H]1CCOC1 | – | active: 11800 nM
9 | CC#C[C@]1(O)CC[C@H]2[C@@H]3CCC4=CC(=O)CCC4=C3[C@H](c3ccc(N(C)C)cc3)C[C@@]21C | – | inconclusive: 105 nM [rising, full curve, poor fit]
10 | COC(=O)[C@]12CCC(C)(C)C[C@@H]1[C@@H]1C(=O)C=C3[C@@]4(C)C=C(C#N)C(=O)C(C)(C)[C@@H]4CC[C@@]3(C)[C@]1(C)CC2 | – | active: 1180 nM
11 | COc1cc2nccc(Oc3ccc(NC(=O)NC4CC4)c(Cl)c3)c2cc1C(N)=O | – | inconclusive: 26400 nM [cytotoxic, single point]
12 | CCN(CC)CCn1c(=O)c(Cc2ccc(OC)cc2)nc2ccccc21 | – | inconclusive: 66.2 nM [cytotoxic, full curve, poor fit]
13 | CC(NCc1ccc2c(c1)nc(NC(=O)c1ccc(-c3cn[nH]c3)s1)n2CC(C)(C)O)C(C)(C)C (stereo not given) | – | active: 166 nM
14 | COc1cc(C)c(Sc2cnc(NC(=O)c3ccc(CNC(C)C(C)(C)C)cc3)s2)cc1C(=O)N1CCN(C(C)=O)CC1 (stereo not given) | – | inconclusive: 29600 nM [cytotoxic, partial curve, poor fit]
15 | COc1cccc2cc(-c3nc(C4CCC(C(=O)O)CC4)n4ncnc(N)c34)[nH]c12 (stereo not given) | – | inconclusive: 18700 nM [cytotoxic, partial curve, poor fit]
16 | CC(=O)O[C@@]12CO[C@@H]1C[C@H](O)[C@@]1(C)C(=O)[C@H](O)C3=C(C)[C@@H](OC(=O)[C@H](O)[C@@H](NC(=O)OC(C)(C)C)c4ccccc4)C[C@@](O)([C@@H](OC(=O)c4ccccc4)[C@H]21)C3(C)C | – | inconclusive: 2090 nM [rising, partial curve, poor fit]
17 | Cc1cnc(-c2cnc(NCCNc3ccc(C#N)cn3)nc2-c2ccc(Cl)cc2Cl)[nH]1 | inconclusive: 88.7% | –
18 | Cc1cccc(C=NNc2cc(N3CCOCC3)nc(OCCc3ccccn3)n2)c1 | – | active: 23500 nM
19 | Cc1nnc(C(C)C)n1C1CC2CCC(C1)N2CC[C@H](NC(=O)C1CCC(F)(F)CC1)c1ccccc1 (stereo not given in full) | – | inconclusive: 6.6 nM [cytotoxic, full curve, poor fit]
20 | CCN(CCCO)CCCOc1ccc2c(Nc3cc(CC(=O)Nc4cccc(F)c4)[nH]n3)ncnc2c1 | – | inconclusive: 83.3 nM [cytotoxic, full curve, poor fit]

Row | SMILES | viability, % of control | Potency
21 | C[C@@H](Oc1cc(-n2cnc3ccc(CN4CCN(C)CC4)cc32)sc1C(N)=O)c1ccccc1C(F)(F)F | – | inconclusive: 7.4 nM [cytotoxic, full curve, poor fit]
22 | Cc1cc(Nc2nc(N[C@@H](C)c3ncc(F)cn3)ncc2Cl)n[nH]1 | – | inconclusive: 14800 nM [cytotoxic, partial curve, poor fit]
23 | O=c1[nH]nc(Sc2ncc([N+](=O)[O-])s2)n1-c1ccc2c(c1)OCCO2 | – | active: 5260 nM
24 | CN([C@@H](Cc1ccc(OS(=O)(=O)c2cccc3cnccc23)cc1)C(=O)N1CCN(c2ccccc2)CC1)S(=O)(=O)c1cccc2cnccc12 | – | inconclusive: 3.7 nM [cytotoxic, full curve, poor fit]
25 | Nc1ccn([C@@H]2O[C@H](CO)[C@@H](O)C2(F)F)c(=O)n1 | – | active: 17.1 nM
26 | CC(NC(=O)Cc1cc(F)cc(F)c1)C(=O)NC(C(=O)OC(C)(C)C)c1ccccc1 (stereo not given) | inconclusive: 104% | –
27 | C[C@@]12O[C@@H](C[C@]1(O)CO)n1c3ccccc3c3c4c(c5c6ccccc6n2c5c31)CNC4=O | – | inconclusive: 20900 nM [cytotoxic, partial curve, poor fit]
28 | Nc1cc(C(F)(F)F)c(-c2cc(N3CCOCC3)nc(N3CCOCC3)n2)cn1 | – | active: 833 nM
29 | O=C(NCCCNc1nc(Nc2cccc(NC(=O)N3CCCC3)c2)ncc1I)c1cccs1 | – | inconclusive: 743 nM [cytotoxic, full curve] and inconclusive: 418 nM [cytotoxic, full curve, poor fit]
30 | CCC1(Cc2ccc(N)cc2)CCC(=O)NC1=O (stereo not given) | – | inconclusive: 24.1 nM [cytotoxic, full curve, poor fit]
31 | CC(=O)Nc1sc2c(c1-c1nc3ccccc3s1)CNC2 | – | inconclusive: 33200 nM [cytotoxic, single point]
32 | CC(C)c1onc(-c2c(Cl)cccc2Cl)c1COc1ccc(/C=C/c2cccc(C(=O)O)c2)c(Cl)c1 | – | active: 18700 nM
33 | CC(C)(C)c1cnc(CSc2cnc(NC(=O)C3CCNCC3)s2)o1 | – | active: 418 nM
34 | Cn1cncc1[C@@](N)(c1ccc(Cl)cc1)c1ccc2c(c1)c(-c1cccc(Cl)c1)cc(=O)n2C | – | inconclusive: 20900 nM [cytotoxic, partial curve, poor fit]
35 | C[C@H](NC(=O)Cc1cc(F)cc(F)c1)C(=O)N[C@@H]1C(=O)N(C)c2ccccc2-c2ccccc21 | inconclusive: 98% | –
36 | C=CC(=O)N1CCC[C@@H](n2nc(-c3ccc(Oc4ccccc4)cc3)c3c(N)ncnc32)C1 | – | inconclusive: 19100 nM [cytotoxic, partial curve, poor fit]
37 | CCCCCCCCCCCCCCCCCCOP(=O)([O-])OC1CC[N+](C)(C)CC1 | inconclusive: 71.6% [at 29.8 µM] | –
38 | CCOC(=O)C1=C[C@@]2(CC)CCCN3CCc4c(n1c1ccccc41)[C@H]32 | – | inconclusive: 2.4 nM [rising, full curve, poor fit]
39 | O=C(O)c1ccc(-c2c[nH]c3ccc(-c4ccccc4)cc23)cc1C1CCCC1 | – | inconclusive: 66.2 nM [cytotoxic, full curve, poor fit]
40 | CC(C)C[C@H](NC(=O)CNC(=O)c1cc(Cl)ccc1Cl)B(O)O | – | active: 93.5 nM
